Experimental data: PubChem BioAssay AID1259308 (NCATS, 2017)

Purpose: 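Knock-downs that increase output of a recombinant reporter protein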 (primary screen)
Cells: human HEK293 embryonic kidney cells stably expressing firefly luciferase (HEK-CMV-Luc2-Hygro)
Reagent: single siRNA against human genes, 0.8 pmol siRNA per well
Timing: 72 h
Detection: 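Reporter luminescence and viable-cell signal on separate replicate plates, given as percent of non-targeting control and median/MAD z-scores, plus per-cell luciferase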
Reading the numbers: total luciferase, z-score and total luciferase, % of control: higher = more reporter protein produced
Active means: 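Active when the median/MAD z-score for overall luciferase is greater than 3; a gene was taken forward for validation with new siRNAs if at least two of its three siRNAs passed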
Calls: active = raised luciferase; inactive = no rise
This is an unselected part of about 59,000 reagents. Over the whole deposit, about 1,510 (2.6%) were called active. 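Calls use total luciferase alone and ignore viability, so some active siRNAs may act by altering cell number.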 Reagents against one gene are numbered here. Not all columns of the deposit are shown.

Target gene	siRNA no.	total luciferase, z-score	total luciferase, % of control	activity call
CCKAR	1	0.953	101	inactive
CCKAR	2	-0.396	74	inactive
CCKAR	3	-1.61	49.8	inactive
OMA1	1	-1.45	53	inactive
OMA1	2	-2.12	39.7	inactive
OMA1	3	0.0526	82.9	inactive
EMCN	1	0.994	102	inactive
EMCN	2	-0.573	70.5	inactive
EMCN	3	0.626	94.3	inactive
RGS22	1	-0.0443	81	inactive
RGS22	2	1.16	105	inactive
RGS22	3	0.369	89.2	inactive
FRS2	1	-0.675	68.5	inactive
FRS2	2	0.452	90.9	inactive
FRS2	3	-0.179	78.3	inactive
UTP20	1	-1.78	46.5	inactive
UTP20	2	-1.65	49.2	inactive
UTP20	3	-1.56	50.9	inactive
VAMP8	1	0.225	86.4	inactive
VAMP8	2	0.0996	83.9	inactive
VAMP8	3	0.0325	82.5	inactive
PHC3	1	0.0126	82.1	inactive
PHC3	2	-1.36	54.9	inactive
PHC3	3	-1.4	54	inactive
UQCC4	1	0.539	92.6	inactive
UQCC4	2	-0.177	78.4	inactive
UQCC4	3	-0.0736	80.4	inactive
PFKP	1	-0.486	72.2	inactive
PFKP	2	-0.0623	80.6	inactive
PFKP	3	0.61	94	inactive
RIPOR3	1	-0.00927	81.7	inactive
RIPOR3	2	1.17	105	inactive
RIPOR3	3	1.29	108	inactive
RAD51D	1	0.11	84.1	inactive
RAD51D	2	-1.48	52.5	inactive
RAD51D	3	1.71	116	inactive
ZFHX3	1	0.366	89.2	inactive
ZFHX3	2	-0.773	66.5	inactive
ZFHX3	3	-0.749	67	inactive
APOA5	1	-1.29	56.2	inactive
APOA5	2	-0.785	66.3	inactive
APOA5	3	0.0618	83.1	inactive
ABCC6P1	1	-0.518	71.6	inactive
ABCC6P1	2	1.82	118	inactive
ABCC6P1	3	2.47	131	inactive
RPL28	1	-0.985	62.3	inactive
RPL28	2	-1.49	52.3	inactive
RPL28	3	-2.78	26.5	inactive
CUL9	1	-0.0548	80.8	inactive
CUL9	2	0.581	93.4	inactive
CUL9	3	-0.912	63.7	inactive
HTATIP2	1	-1.27	56.6	inactive
HTATIP2	2	2.34	128	inactive
HTATIP2	3	-0.408	73.8	inactive
UVRAG	1	1.4	110	inactive
UVRAG	2	2.14	124	inactive
UVRAG	3	-1.41	53.9	inactive

Records above whose target name starts with H or h (3):
Target gene	siRNA no.	total luciferase, z-score	total luciferase, % of control	activity call
HTATIP2	1	-1.27	56.6	inactive
HTATIP2	2	2.34	128	inactive
HTATIP2	3	-0.408	73.8	inactive
